# Results from patent US12319659B2, “Selective ligand for dopamine D3 receptor, preparation method therefor, and pharmaceutical application thereof” (Shenzhen Linglan Bio-Pharmaceutical Technology Co., Ltd, priority 2017, dated 2025).
# At least one read-out could not be matched to a standard name with certainty.
# Assay: Solubility assay in water
# Format: physicochemical
# Conditions: hydrochloride versus free base
# Text: Solubility Assay of the D3 Receptor-Selective Ligand
smiles,measurement,value
"O=C(NCCCCN1CCN(c2ccc(Cl)cc2)CC1)Nc1cnc2ccccc2c1 [Compound 8i, 1-(4-(4-(4-chlorophenyl)piperazin-1-yl)butyl)-3-(quinolin-3-yl)urea]",increase of solubility in water when prepared into a hydrochloride salt,at least 12 times
